Results reported in PubChem BioAssay AID540303 (National Center for Advancing Translational Sciences (NCATS), 2011).
Hit rate of the full screen: of about 330,000 compounds, about 1,000 (0.3%) were called active. This list was built around the results that the source calls inconclusive (neither active nor inactive); the mix of calls is not that of the screen. Calls come from the whole dose curve; as a rule, active = well fitted inhibition curve with a large enough effect; inconclusive = small, poorly fitted or top-dose-only effect; inactive = no such curve, though single readings can be large or run the other way; tested in mouse RAW 264.7 cells. Potencies of inconclusive entries are doubtful fits and often do not repeat.

Assay: qHTS for Inhibitors of Cell Surface uPA Generation; note: nearly all actives have a fitted effect of over 55% in size
Details: cell surface uPA generation assay; series mostly up to 38.3 µM
How it was run: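 RAW 264.7 cells (4000/well) were plated overnight at 37 C and then given compounds in a 1:5 series (up to 38.3 uM final) plus reagent for 24 h. Intracellular ATP was measured by ATP-Lite luminescence and stays elevated when uPA-dependent LF entry is blocked.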
Potency is the fitted concentration of half-maximal effect.

Row | Compound | Potency
1 | Cn1nnnc1Sc1ncnc2scc(-c3cccc(Br)c3)c12 | active: 8.91 µM
2 | COc1cc(/C=C(\C#N)C(=O)NCCc2ccccc2)cc(OC)c1O | inconclusive: 4.47 µM [inhibitor, partial curve, poor fit]
3 | CCCSc1nc2c3c(sc2c(=O)[nH]1)CC(C)(CC)OC3 (configuration not stated) | inactive
4 | CCc1ccc(Nc2n[n+](-c3ccccc3)c(-c3c(Cl)cccc3Cl)s2)cc1 | active: 12.6 µM
5 | COc1cccc(CNC(=O)C(=O)NCCc2ccc(OC)c(OC)c2)c1 | inactive
6 | O=C(N/N=C/c1cccc(O)c1)c1ccc2c(c1)OCCO2 | inconclusive: 0.398 µM [inhibitor, full curve, poor fit]
7 | C=CC[C@@H](CC(=O)N(CCO)Cc1ccccc1)C(=O)N[C@H](COC(=O)[C@@H](CC=C)CC(=O)OC(C)(C)C)Cc1c[nH]c2ccccc12 | inconclusive: 7.94 µM [inhibitor, single point]
8 | CN1CCCN(C(c2ccccc2)c2ccc(Cl)cc2)CC1 (configuration not stated) | inconclusive: 5.62 µM [inhibitor, single point]
9 | O=C(Nc1nc(-c2cccs2)cs1)c1ccco1 | inconclusive: 8.91 µM [inhibitor, partial curve, poor fit]
10 | Cc1ccc(-n2ncc(Br)c(Br)c2=O)cc1 | active: 12.6 µM
11 | CC1(c2ccc(Cl)cc2)NC(=O)N(CC(=O)N2CCc3ccccc32)C1=O (configuration not stated) | inconclusive: 14.1 µM [inhibitor, single point]
12 | CCNc1nc2c(c(=O)n(C)c(=O)n2C)n1Cc1ccc(Cl)cc1 | inconclusive: 11.2 µM [inhibitor, partial curve, poor fit]
13 | COc1ccc(C(=O)/C(C#N)=N/Nc2ccc([N+](=O)[O-])cc2)cc1 | active: 1 µM
14 | CCOc1ccccc1N1CCN(S(=O)(=O)c2cc(C)ccc2OC)CC1 | inactive
15 | COc1ccc(C(=O)NNC(=O)c2ccc3ccccc3c2O)cc1 | inconclusive: 0.02 µM [inhibitor, full curve, poor fit]
16 | COc1ccc(C2=NN(C(=O)CSc3cn(C)c4ccccc34)C(c3ccc(OC)cc3)C2)cc1 (configuration not stated) | inconclusive: 8.91 µM [inhibitor, single point]
17 | O=c1[nH]c2cc3c(cc2cc1C(c1nnnn1Cc1ccccc1)N1CCN2CCCC2C1)OCCO3 (configuration not stated) | inactive
18 | O=C(O)c1cc(-c2cc3ccccc3o2)nn1-c1ccccc1 | inactive
19 | COc1ccccc1C(O)(c1ccccc1)C(CN1CCOCC1)c1ccccc1 (configuration not stated) | inconclusive: 7.08 µM [inhibitor, partial curve, poor fit]
20 | S=c1[nH]c(-c2ccccc2)cn1-c1ccccc1 | inconclusive: 1 µM [inhibitor, partial curve, poor fit]
21 | Cc1ccc(Cl)c(N/C=C/C(=O)c2ccccc2)c1 | inconclusive: 28.2 µM [inhibitor, single point]
22 | C=CCC[C@H](Cc1ccc(F)cc1)C(=O)OC[C@@H](NC(=O)[C@@H](CC=C)CC(=O)N(CCO)Cc1ccccc1)C(C)(C)C | inconclusive: 7.94 µM [inhibitor, partial curve, poor fit]
23 | COCCCNCCCCOc1ccc(OCc2ccccc2)cc1 | inconclusive: 11.2 µM [inhibitor, single point]

Row | Compound | Potency
24 | COC(=O)N1C(=O)[C@](c2ccc(Cl)cc2)(C(C)C)N1C(=O)OC | inconclusive: 8.91 µM [inhibitor, single point]
25 | COc1ccc(S(=O)(=O)N2CCCC2)cc1C(=O)O | inconclusive: 28.2 µM [inhibitor, single point]
26 | O=C(CCl)Nc1c2c(nn1-c1ccccc1)CSC2 | inactive
27 | CC(=O)Nc1ccc(-c2nc3ccccc3o2)cc1 | inconclusive: 7.08 µM [inhibitor, partial curve]
28 | CCOc1ccc(-c2ccc3nnc(SCC(=O)NCC4CCCO4)n3n2)cc1 (configuration not stated) | inconclusive: 12.6 µM [inhibitor, partial curve, poor fit]
29 | C[C@H](NC(=O)c1nc[nH]c1C(=O)N[C@@H](Cc1ccccc1)C(=O)OC(C)(C)C)C(=O)OC(C)(C)C | inconclusive: 7.94 µM [inhibitor, single point]
30 | COc1ccc(OC)c(Nc2ncnc3c2cnn3-c2cccc(C)c2)c1 | inconclusive: 3.55 µM [inhibitor, partial curve]
31 | CN(C)C1(CNC(=O)C2CCC(=O)N(CCc3ccc(Cl)cc3)C2)CCCCC1 (configuration not stated) | inconclusive: 10 µM [inhibitor, partial curve, poor fit]
32 | Cc1ccc(S(=O)(=O)N2CCN(C)CC2)cc1C(=O)NC1CCCCC1 | inconclusive: 2.82 µM [inhibitor, single point]
33 | Cc1cc(C(=O)COC(=O)c2ccccc2O)c(C)n1CC1CCCO1 (configuration not stated) | inconclusive: 5.01 µM [inhibitor, partial curve, poor fit]
34 | O=c1nc2ccccc2c2n1CC(CN1CCN(c3ccc(F)cc3)CC1)N2 (configuration not stated) | inactive
35 | C/C(N)=C(/C#N)C(=O)CSc1ccc2c(c1)OCCO2 | inactive
36 | COc1ccc(CCNC(=O)C(=O)NCC2OCCN2S(=O)(=O)c2cc(F)ccc2F)cc1 (configuration not stated) | inconclusive: 2.82 µM [inhibitor, single point]
37 | CCCCNC(=O)CCC(=O)Nc1ccc2nc(N3CCOCC3)cc(C)c2c1 | inactive
38 | COc1cc(C2CC(=O)Nc3n[nH]c(-c4ccccc4)c32)cc(OC)c1OC (configuration not stated) | inconclusive: 11.2 µM [inhibitor, single point]
39 | COc1cccc(N2CCN(c3cnc4ccccc4n3)CC2)c1 | inactive
40 | C=CCNc1oc(-c2cccc(Cl)c2)nc1C#N | inconclusive: 7.08 µM [inhibitor, single point]
41 | Clc1ccc(/C=C/c2ncc[nH]2)c(Cl)c1 | inconclusive: 12.6 µM [inhibitor, single point]
42 | CC(C)C[C@H](NC(=O)c1nc[nH]c1C(=O)NC(c1ccccc1)c1ccccc1)C(=O)OC(C)(C)C | inconclusive: 31.6 µM [inhibitor, single point]
43 | c1ccc(Cn2c(Sc3nnnn3-c3ccccc3)nnc2-c2ccccc2)cc1 | inconclusive: 4.47 µM [inhibitor, partial curve, poor fit]
44 | COC(=O)c1ccc(C(=O)Nc2ccc(F)cc2)cc1 | inconclusive: 4.47 µM [inhibitor, partial curve]
45 | CN(C)S(=O)(=O)c1cccc(NC(=O)c2cccc(S(=O)(=O)N3CCCCCC3)c2)c1 | inconclusive: 7.94 µM [inhibitor, partial curve, poor fit]
46 | O=C(CSc1nnc(-c2csc3c2CCCC3)o1)Nc1ccccc1 | inconclusive: 2 µM [inhibitor, partial curve, poor fit]

Row | Compound | Potency
47 | COc1cc(OC)cc(C(=O)NCC(=O)OCC(=O)NC(C)CCc2ccccc2)c1 (configuration not stated) | inconclusive: 0.316 µM [inhibitor, full curve, poor fit]
48 | CC(C)C[C@H](NC(=O)c1nc[nH]c1C(=O)N[C@@H](CC(C)C)C(=O)OCc1ccccc1)C(=O)OCc1ccccc1 | inconclusive: 7.08 µM [inhibitor, partial curve, poor fit]
49 | COCCCNC(=S)NNC(=O)c1csc(C)n1 | inconclusive: 12.6 µM [inhibitor, single point]
50 | Cc1cc(=O)n2c3ccccc3n(CC(O)CN3CCCC3)c2c1C#N (configuration not stated) | inconclusive: 28.2 µM [inhibitor, single point]
51 | O=[N+]([O-])c1ccc(Sc2cccc[n+]2[O-])c2nonc12 | inconclusive: 2.82 µM [inhibitor, full curve]
52 | COc1ccc(CNc2nc(NCc3ccc(OC)cc3)c3ncn(C4CCCC4)c3n2)cc1 | active: 1.41 µM
53 | COc1cc(N=Nc2ccc3ccccc3c2)ccc1O | active: 3.16 µM
54 | CN1CCN(c2ccc(NC(=O)c3cc4ccccc4o3)cc2)CC1 | inconclusive: 14.1 µM [inhibitor, partial curve, poor fit]
55 | N=C(N)SCc1ccc(Cl)cc1Cl | inconclusive: 7.08 µM [inhibitor, partial curve, poor fit]
56 | CSc1ccc(/C=N/NC(=O)c2cc(O)cc(O)c2)cc1 | inactive
57 | COc1cc(/C=N/Nc2nc(-c3ccc(S(=O)(=O)N(C)C)cc3)cs2)ccc1O | inconclusive: 10 µM [inhibitor, partial curve, poor fit]
58 | CCS(=O)(=O)c1nc(S(=O)(=O)c2ccc(C)cc2)c(N2CC(C)OC(C)C2)s1 (configuration not stated) | inconclusive: 0.631 µM [inhibitor, partial curve, poor fit]
59 | CCOC(=O)c1c(S(=O)(=O)NCc2ccc(C)o2)c(C)n(C)c1C | inactive
60 | CN(C)c1cc[n+](CC(=O)c2ccc(-c3ccccc3)cc2)cc1 | active: 7.08 µM
61 | CCOc1ccc(N=NC2C(=O)N(C(N)=S)N=C2C)cc1 (configuration not stated) | inconclusive: 12.6 µM [inhibitor, single point]
62 | COc1ccccc1N=C1NC(=O)/C(=C/c2ccc(N(C)C)cc2)S1 | inconclusive: 11.2 µM [inhibitor, single point]
63 | O=C(CSc1ccc(-c2cccc([N+](=O)[O-])c2)nn1)N1CCCCCC1 | inactive
64 | COc1ccc(-n2c(SCC(=O)N3CCCC(C)C3)nnc2-c2cccnc2)cc1 (configuration not stated) | inactive
65 | Cc1ccc(S(=O)(=O)NCC(=O)N/N=C/c2ccc(Cl)cc2Cl)cc1 | inactive
66 | O=C(Cn1nc(CNc2ccc(Br)cc2)[n+]2c1CCCCC2)c1ccc([N+](=O)[O-])cc1 | inactive
67 | O=C(c1ccc(-c2nc3ccccc3s2)s1)N1CCOCC1 | inconclusive: 3.16 µM [inhibitor, partial curve, poor fit]

An excerpt from above in order of formula weight, rising:
Row | Compound | Potency
55 | N=C(N)SCc1ccc(Cl)cc1Cl | inconclusive: 7.08 µM [inhibitor, partial curve, poor fit]
44 | COC(=O)c1ccc(C(=O)Nc2ccc(F)cc2)cc1 | inconclusive: 4.47 µM [inhibitor, partial curve]
53 | COc1cc(N=Nc2ccc3ccccc3c2)ccc1O | active: 3.16 µM
25 | COc1ccc(S(=O)(=O)N2CCCC2)cc1C(=O)O | inconclusive: 28.2 µM [inhibitor, single point]
13 | COc1ccc(C(=O)/C(C#N)=N/Nc2ccc([N+](=O)[O-])cc2)cc1 | active: 1 µM
54 | CN1CCN(c2ccc(NC(=O)c3cc4ccccc4o3)cc2)CC1 | inconclusive: 14.1 µM [inhibitor, partial curve, poor fit]
24 | COC(=O)N1C(=O)[C@](c2ccc(Cl)cc2)(C(C)C)N1C(=O)OC | inconclusive: 8.91 µM [inhibitor, single point]
23 | COCCCNCCCCOc1ccc(OCc2ccccc2)cc1 | inconclusive: 11.2 µM [inhibitor, single point]
12 | CCNc1nc2c(c(=O)n(C)c(=O)n2C)n1Cc1ccc(Cl)cc1 | inconclusive: 11.2 µM [inhibitor, partial curve, poor fit]
62 | COc1ccccc1N=C1NC(=O)/C(=C/c2ccc(N(C)C)cc2)S1 | inconclusive: 11.2 µM [inhibitor, single point]
11 | CC1(c2ccc(Cl)cc2)NC(=O)N(CC(=O)N2CCc3ccccc32)C1=O (configuration not stated) | inconclusive: 14.1 µM [inhibitor, single point]
1 | Cn1nnnc1Sc1ncnc2scc(-c3cccc(Br)c3)c12 | active: 8.91 µM
43 | c1ccc(Cn2c(Sc3nnnn3-c3ccccc3)nnc2-c2ccccc2)cc1 | inconclusive: 4.47 µM [inhibitor, partial curve, poor fit]
28 | CCOc1ccc(-c2ccc3nnc(SCC(=O)NCC4CCCO4)n3n2)cc1 (configuration not stated) | inconclusive: 12.6 µM [inhibitor, partial curve, poor fit]
31 | CN(C)C1(CNC(=O)C2CCC(=O)N(CCc3ccc(Cl)cc3)C2)CCCCC1 (configuration not stated) | inconclusive: 10 µM [inhibitor, partial curve, poor fit]
64 | COc1ccc(-n2c(SCC(=O)N3CCCC(C)C3)nnc2-c2cccnc2)cc1 (configuration not stated) | inactive
66 | O=C(Cn1nc(CNc2ccc(Br)cc2)[n+]2c1CCCCC2)c1ccc([N+](=O)[O-])cc1 | inactive
16 | COc1ccc(C2=NN(C(=O)CSc3cn(C)c4ccccc34)C(c3ccc(OC)cc3)C2)cc1 (configuration not stated) | inconclusive: 8.91 µM [inhibitor, single point]
42 | CC(C)C[C@H](NC(=O)c1nc[nH]c1C(=O)NC(c1ccccc1)c1ccccc1)C(=O)OC(C)(C)C | inconclusive: 31.6 µM [inhibitor, single point]
48 | CC(C)C[C@H](NC(=O)c1nc[nH]c1C(=O)N[C@@H](CC(C)C)C(=O)OCc1ccccc1)C(=O)OCc1ccccc1 | inconclusive: 7.08 µM [inhibitor, partial curve, poor fit]
